# Laboratory results reported in PubChem BioAssay AID1347423 (Functional Genomics Laboratory (NCATS/FGL), 2020).
# Screen size: about 52,000 sequences; about 210 (0.4%) were called active.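 How the source made its calls: active means gene whose silencing raises cell survival under the drug, median off-target-corrected z-score across its silencing RNAs 2 or more; inactive means the rest.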 This is one part of the list.
# Assay: Resistance to Poly (ADP-Ribose) Polymerase inhibitor: Gene Identification via Genome-wide siRNA Screen
# Settings: mouse BRCA2 R2336H ES cells, olaparib, CellTiter-Glo viability; active compounds read high
# Method in brief: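 Mouse BRCA2 R2336H ES cells were reverse-transfected with siRNA (20 nM final), treated at 48 h with 500 nM olaparib, and read by CellTiter-Glo after 72 h. Scores: MAD-based z per siRNA, median per gene, seed off-target correction.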
row,Sequence,z-score
1,GGAAACAGCACAACAAACGTT against Adam26,inactive: 0.0159
2,GGACGUGGUCCAUAGACCATT against 6030411F23Rik,inactive: 2.16
3,CCUGCUACCGUACAGUCUCTT against Esm1,inactive: -1.7
4,GGCUCCGUUAUAGAUGACATT against Aip,inactive: -2.4
5,GGAAUUUGUAAAUUUCCGATT against Gbas,inactive: 0.765
6,GGACCUUAAGAGAUAUCAATT against BC048390,inactive: 1.69
7,GGUGGAUGAUGUUUAUCUCTT against Grsf1,inactive: 1.17
8,GGACCAUGCUGGAUACUAUTT against BC023823,inactive: -1.24
9,GGUGAUUGCCCGUUGAUUGTT against 2310069P03Rik,inactive: -0.116
10,GGCUCUUACACUAUAUUUUTT against Tle1,inactive: 0.0257
11,GGGAUCUCUGAGCUCUGCUTT against Rilp,inactive: -0.91
12,GGUAGCUGUCCAGGGUUAUTT against AI839550,inactive: -0.817
13,CGAAGGUCAAACAGUUUGATT against Stxbp6,inactive: -0.829
14,GUUUGUGCUGUUAGGUUUUTT against Olfr1347,inactive: 0.362
15,GCAUUCGAAAUGAAGAUAATT against Dnajb1,inactive: 0.47
16,GGAUGUAAAACCCUAUAAUTT against 1700049G17Rik,inactive: -2.06
17,CGUAUCAGAUAUAUCACAUTT against 2610034N03Rik,inactive: 0.678
18,GCCGAAAGCUAAAUCAAUCTT against Tnfrsf13c,inactive: 0.0143
19,GGUCAUACAUGUGAAGACATT against 2310007F12Rik,inactive: 1.39
20,GGGAAGGGUCCAAAAAUCUTT against Mmp17,inactive: 0.544
21,CCUCUCCUGCUCUGACAUATT against Olfr933,inactive: -1.38
22,GGUUUUCACUGCUAUAACATT against Lass6,inactive: -0.204
23,GGCUGACAUCCAGAAUUUCTT against Dci,inactive: 0.394
24,GGCGAUCAGGCAUCAUCCUTT against Aox1,inactive: 1.23
25,GGAAAGCUUACAGUUGAAATT against 4933427D06Rik,inactive: 0.21
26,GGCAUUACCAAUUUUUGUATT against Tada2l,inactive: 0.67

# Looked up above:
# Entry for CGAAGGUCAAACAGUUUGATT against Stxbp6 under z-score: inactive: -0.829
# Entry for GGUGAUUGCCCGUUGAUUGTT against 2310069P03Rik under z-score: inactive: -0.116

# (further entries)

row,Sequence,z-score
1,AGUAUACUGGUUUCAUAACTT against MGC59529,inactive: -0.0806
2,UGGUACCACCAUUUUUACCTT against Olfr452,inactive: -0.557
3,AGGAUACGAUUGAACGGCUTT against Rac3,inactive: 1.01
4,GGAGCUAUCAGAGAAGAGGTT against Slc13a4,inactive: 1.08
5,GGCUUUUCAUUUGAUUAAGTT against 2310032D16Rik,inactive: 0.0265
6,GCAACACGUACGAGCUCAATT against Pou2af1,inactive: -1.96
7,GGCUUUGUGCUAAAAAAAATT against Pgm2l1,inactive: 0.12
8,GGUCAUCAGCUCUAUGAGCTT against D930046M03,inactive: 0.283
9,UGCAGUGCACUGUACUACATT against Ssxb2,inactive: 1.16
10,CCAAGUUGGCAUACUAUUCTT against Pank4,inactive: 1.33
11,GGCUCUGAGAUCUAUGAAATT against 2610510B01Rik,inactive: 0.652
12,GGCCAUUUUGCCUAAGAAGTT against 1810008A18Rik,inactive: 0.984
13,GCAUAAGCGAAGAAGAAGUTT against Clk2,inactive: -0.197
14,GGUGUGUAACAAGGCCUUCTT against Zfp339,inactive: 1.65
15,GGAGAAGAUGCUGUCUUGCTT against Kif21b,inactive: -1.81
16,GGUCGGAAGAAUCUAAAGGTT against Dmp1,inactive: 0.0661
17,CCCUCUGUGGUUAAAGACUTT against 0610012D17Rik,inactive: -0.506
18,CCUACCUGAUCGUUCCUUATT against 1110007C02Rik,inactive: -0.256
19,GGCUACCUUCUACCUAAGGTT against Cyp2g1,inactive: 0.855
20,GCAGAAUCGCUUCAGUUCUTT against 1810015P03Rik,inactive: 0.0076
21,GGGAAGAAUGGACAAAUAATT against 1810057C19Rik,inactive: -1.46
22,GGAGAUUGGACCACUAUGATT against Sec24d,inactive: -0.273
23,GGAUUCUCCAGACACCUUGTT against 1700011C14Rik,inactive: -0.514
24,GGUAAAUGGCACACGUAGUTT against Hint1,inactive: -0.229
25,GGAGACUAGCACACAAAUATT against Nt5c,inactive: -0.898
26,GGCAAUUCUUAACCUGUCCTT against Tacc1,inactive: -0.249

# Quoted at random: 2 entries already listed, in no set order.
row,Sequence,z-score
8,GGUCAUCAGCUCUAUGAGCTT against D930046M03,inactive: 0.283
13,GCAUAAGCGAAGAAGAAGUTT against Clk2,inactive: -0.197

# More results follow:

row,Sequence,z-score
1,CCAAAUUUGAGAGCAUAAGTT against 3632451O06Rik,inactive: -1.6
2,GGACAACCGAUGAAUUUCGTT against C630015F21Rik,inactive: -0.417
3,GGGAUUGGGUUCCAAUCUUTT against Ugalt2,inactive: 0.273
4,GCAGUUGAGUCCACCUCAATT against 4932418E24Rik,inactive: -0.217
5,GCCACCUCAUGAAUAAAAGTT against Cd8b,inactive: 0.736
6,GGUCCAUAACUUGUGUGCUTT against 3300002I08Rik,inactive: -0.311
7,CCUGACUUCUACUAAAGAATT against AI480653,inactive: -0.219
8,CCUACGUGAACAUGACGGUTT against Hrb,inactive: 1.39
9,GCAUGGUAUCAGGUACAUATT against BC019367,inactive: 1.43
10,CCAGCUGUGUAACACUACCTT against Gfi1,inactive: 0.0736
11,GCAUAAGCCUAAAAAUUCUTT against Ptprd,inactive: 0.47
12,CCGCCAUAUGUAUCACAGCTT against Rpl19,inactive: -2.12
13,GGUCAGAUGUGGAGAAAGGTT against Ufd1l,inactive: -3.04
14,GGCAAGAAGUGCACUGUAUTT against Rac3,inactive: 0.901
15,GCAGAUACUAGAGUUGUUUTT against Papd4,inactive: 1.28
16,GGAGUUUCUGGAUGGUGGUTT against 2810405K02Rik,inactive: -1.22
17,GGUGGCAGAGGAUAUGUUUTT against Acbd4,inactive: -0.129
18,GGAUGCAUGAGAAAUGUUATT against Tbc1d14,inactive: 0.295
19,GGCCAACUAGGGUGUUUGUTT against Tsx,inactive: -0.532
20,GGCUACCACACAUACCAAATT against Stra6,inactive: -0.124
21,CCUCUCCAUCUUUGACAUGTT against Olfr963,inactive: -0.366
22,GGACACUGCAAAAGAGGAGTT against Defcr4,inactive: 0.714
23,GCCUUAUUACUGACCUUUUTT against Smarcd2,inactive: 1.1
24,GGCAUGGAAGGGUUGGAUATT against Polk,inactive: 1.25
25,GGUAAAUGCUGACUGUGAUTT against Cilp,inactive: -0.162
26,GGCGAUCGAGCCCUACAAATT against Bnip2,inactive: -1.35

row,Sequence,z-score
1,GCAAGUAGAUUGUCUCGAGTT against Scd1,inactive: 0.223
2,GCCAUCUGCUUUAACCUCUTT against Aebp2,inactive: 4
3,GCUAUGAAGAUUCGAUUAATT against Rpa1,inactive: -2.34
4,GGCCCUUCUACAGAAGUUCTT against AI132321,inactive: 0.942
5,GGUUGAAUACGAAGGCUUATT against Bicd1,inactive: -0.751
6,GGUGAUGUAAGCGUGAUUATT against 1700065O13Rik,inactive: 0.522
7,GCUGUACACAAGUUGACCCTT against Fndc3,inactive: 0.351
8,GGGUUGAACCUAAAGUCUATT against 4921521F21Rik,inactive: -0.576
9,CCCUCCUCCAGCAUAUGAATT against Fbxl18,inactive: -0.72
10,GGAAUAUCUUCUCAAGUCUTT against A230102I05Rik,inactive: 0.97
11,CCCUAAGGAGUUUUGCGUUTT against Zfpn1a4,inactive: -0.176
12,GCUACAGGGAAAAAGUUCCTT against Olfr994,inactive: 0.246
13,GGUGCAUUUAUGUAUUUCCTT against Olfr916,inactive: -2.2
14,GGGUCUCAACAAAAUCAGUTT against Gli3,inactive: 0.193
15,GGCAACUUCAUUGUGAAGGTT against Man2b1,inactive: -0.632
16,GGCUACACUCUGACAGCACTT against Znhit2,inactive: 0.224
17,CCUGGAACAUAGAUGUAUATT against AU020939,inactive: -1.2
18,GGACUAUGGUGGGAACUAGTT against Tas2r119,inactive: 0.384
19,GGAAAAAAAAAAGCAGUGATT against Phactr4,inactive: 0.493
20,GGGACAUCAGAUUAUUCAUTT against Zfp87,inactive: 0.137
21,GCUAAGUUUCACCCAAAGGTT against A930010I20Rik,inactive: -0.853
22,GGCCAUUGUUGAAAUGUACTT against Myh14,inactive: 0.415
23,GGGAAGCUUUACUUUUUAATT against Mapk4,inactive: 0.465
24,GGAAGUUUUUCCAAGAAGATT against Acadl,inactive: 1.65
25,GGUAGCUUAUUGCUAAGGCTT against Pnn,inactive: 1.06
26,GGAAACCAGACUUUCCCUATT against V1ra5,inactive: -0.806
